Assay results: patent US20250009893A1
Structures were worked out from names or drawings and are uncertain.

Chains of the proteins cited; added tags and fusions are not shown. Residues count along the entry.
UniProt P10721, 26-976 limits assumed: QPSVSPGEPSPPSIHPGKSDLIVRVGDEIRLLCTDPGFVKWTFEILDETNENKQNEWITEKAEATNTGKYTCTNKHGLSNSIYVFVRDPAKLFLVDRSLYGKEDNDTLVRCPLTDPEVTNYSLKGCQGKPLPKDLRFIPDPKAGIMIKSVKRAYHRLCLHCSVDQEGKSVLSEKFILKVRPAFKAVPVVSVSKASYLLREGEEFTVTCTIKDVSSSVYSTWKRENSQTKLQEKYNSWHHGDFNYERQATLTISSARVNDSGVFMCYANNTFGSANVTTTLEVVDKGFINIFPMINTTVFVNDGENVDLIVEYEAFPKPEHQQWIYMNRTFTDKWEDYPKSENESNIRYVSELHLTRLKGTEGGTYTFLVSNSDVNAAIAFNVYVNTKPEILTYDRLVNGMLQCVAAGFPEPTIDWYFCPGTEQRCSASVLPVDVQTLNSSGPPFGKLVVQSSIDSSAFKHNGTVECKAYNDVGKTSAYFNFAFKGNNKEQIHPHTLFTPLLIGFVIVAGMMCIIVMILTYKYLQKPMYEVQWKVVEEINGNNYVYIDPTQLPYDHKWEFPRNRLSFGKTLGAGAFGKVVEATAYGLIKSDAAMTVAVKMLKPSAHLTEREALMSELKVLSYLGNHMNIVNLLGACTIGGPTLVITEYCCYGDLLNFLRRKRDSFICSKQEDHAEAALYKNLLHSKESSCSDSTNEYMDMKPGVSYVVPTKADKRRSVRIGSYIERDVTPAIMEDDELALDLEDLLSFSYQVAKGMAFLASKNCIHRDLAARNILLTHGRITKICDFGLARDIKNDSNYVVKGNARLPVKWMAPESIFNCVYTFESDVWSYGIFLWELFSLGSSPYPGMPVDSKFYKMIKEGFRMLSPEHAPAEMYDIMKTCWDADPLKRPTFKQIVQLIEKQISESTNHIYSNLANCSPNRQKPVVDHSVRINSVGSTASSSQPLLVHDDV
UniProt P16234, 24-1089 limits assumed: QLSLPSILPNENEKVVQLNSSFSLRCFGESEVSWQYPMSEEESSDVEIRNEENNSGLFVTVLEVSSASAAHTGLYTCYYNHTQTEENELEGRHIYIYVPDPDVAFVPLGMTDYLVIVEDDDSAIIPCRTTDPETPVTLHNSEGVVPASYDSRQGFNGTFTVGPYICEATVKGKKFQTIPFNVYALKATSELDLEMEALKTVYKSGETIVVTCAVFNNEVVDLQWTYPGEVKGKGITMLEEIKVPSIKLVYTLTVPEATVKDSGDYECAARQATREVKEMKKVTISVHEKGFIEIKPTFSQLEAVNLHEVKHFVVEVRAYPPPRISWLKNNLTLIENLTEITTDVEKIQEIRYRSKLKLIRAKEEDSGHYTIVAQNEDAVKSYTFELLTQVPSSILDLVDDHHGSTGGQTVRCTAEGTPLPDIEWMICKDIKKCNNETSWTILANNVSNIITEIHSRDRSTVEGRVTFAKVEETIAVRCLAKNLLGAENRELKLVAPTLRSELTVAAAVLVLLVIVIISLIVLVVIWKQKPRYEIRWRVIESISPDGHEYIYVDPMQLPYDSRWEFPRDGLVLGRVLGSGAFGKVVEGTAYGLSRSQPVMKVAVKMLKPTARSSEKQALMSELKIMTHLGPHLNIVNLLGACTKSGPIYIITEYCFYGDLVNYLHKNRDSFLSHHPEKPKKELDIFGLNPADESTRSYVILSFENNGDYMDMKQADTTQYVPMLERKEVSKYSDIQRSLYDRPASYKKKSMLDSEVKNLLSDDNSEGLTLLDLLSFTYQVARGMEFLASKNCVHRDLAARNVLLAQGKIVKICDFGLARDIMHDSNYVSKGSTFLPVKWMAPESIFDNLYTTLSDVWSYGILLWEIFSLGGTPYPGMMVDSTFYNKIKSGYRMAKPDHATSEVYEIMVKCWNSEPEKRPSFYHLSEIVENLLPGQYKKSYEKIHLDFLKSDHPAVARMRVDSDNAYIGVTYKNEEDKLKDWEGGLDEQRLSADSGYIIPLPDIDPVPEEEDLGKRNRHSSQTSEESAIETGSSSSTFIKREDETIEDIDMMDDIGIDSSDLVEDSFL
UniProt P35968, 20-1356 limits assumed: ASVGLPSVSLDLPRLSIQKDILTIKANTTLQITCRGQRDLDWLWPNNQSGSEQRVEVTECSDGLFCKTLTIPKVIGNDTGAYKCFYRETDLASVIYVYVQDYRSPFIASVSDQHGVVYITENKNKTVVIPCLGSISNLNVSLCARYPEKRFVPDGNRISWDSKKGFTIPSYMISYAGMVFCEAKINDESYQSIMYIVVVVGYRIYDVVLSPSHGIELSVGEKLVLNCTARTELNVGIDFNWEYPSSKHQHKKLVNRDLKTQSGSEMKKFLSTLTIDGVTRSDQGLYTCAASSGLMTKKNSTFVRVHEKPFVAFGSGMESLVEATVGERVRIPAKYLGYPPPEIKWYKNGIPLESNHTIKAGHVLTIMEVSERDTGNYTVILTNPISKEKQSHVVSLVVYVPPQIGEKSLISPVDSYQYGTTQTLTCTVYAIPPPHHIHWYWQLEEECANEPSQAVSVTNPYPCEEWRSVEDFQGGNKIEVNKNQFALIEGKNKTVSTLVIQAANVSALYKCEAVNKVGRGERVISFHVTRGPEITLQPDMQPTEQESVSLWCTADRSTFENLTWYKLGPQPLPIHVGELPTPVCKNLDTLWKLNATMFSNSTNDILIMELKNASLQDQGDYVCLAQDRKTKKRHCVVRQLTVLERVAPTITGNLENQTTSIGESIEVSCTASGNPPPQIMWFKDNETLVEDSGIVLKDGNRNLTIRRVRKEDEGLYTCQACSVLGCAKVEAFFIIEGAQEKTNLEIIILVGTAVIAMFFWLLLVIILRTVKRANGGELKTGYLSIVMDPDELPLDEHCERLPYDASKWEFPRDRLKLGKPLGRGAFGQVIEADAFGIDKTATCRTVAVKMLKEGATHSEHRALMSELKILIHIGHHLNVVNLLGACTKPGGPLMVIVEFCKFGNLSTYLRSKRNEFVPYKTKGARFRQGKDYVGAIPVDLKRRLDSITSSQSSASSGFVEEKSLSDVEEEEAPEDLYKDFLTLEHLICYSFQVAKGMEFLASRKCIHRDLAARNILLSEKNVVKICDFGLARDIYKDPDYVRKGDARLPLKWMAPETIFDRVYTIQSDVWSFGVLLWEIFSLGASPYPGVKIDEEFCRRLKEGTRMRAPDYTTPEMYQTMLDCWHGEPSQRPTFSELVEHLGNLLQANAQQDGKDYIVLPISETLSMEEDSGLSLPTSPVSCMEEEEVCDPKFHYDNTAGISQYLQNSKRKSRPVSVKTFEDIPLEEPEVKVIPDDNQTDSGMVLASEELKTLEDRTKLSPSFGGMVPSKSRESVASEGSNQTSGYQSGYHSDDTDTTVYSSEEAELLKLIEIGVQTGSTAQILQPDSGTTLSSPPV
UniProt P17948, 27-1338 limits assumed: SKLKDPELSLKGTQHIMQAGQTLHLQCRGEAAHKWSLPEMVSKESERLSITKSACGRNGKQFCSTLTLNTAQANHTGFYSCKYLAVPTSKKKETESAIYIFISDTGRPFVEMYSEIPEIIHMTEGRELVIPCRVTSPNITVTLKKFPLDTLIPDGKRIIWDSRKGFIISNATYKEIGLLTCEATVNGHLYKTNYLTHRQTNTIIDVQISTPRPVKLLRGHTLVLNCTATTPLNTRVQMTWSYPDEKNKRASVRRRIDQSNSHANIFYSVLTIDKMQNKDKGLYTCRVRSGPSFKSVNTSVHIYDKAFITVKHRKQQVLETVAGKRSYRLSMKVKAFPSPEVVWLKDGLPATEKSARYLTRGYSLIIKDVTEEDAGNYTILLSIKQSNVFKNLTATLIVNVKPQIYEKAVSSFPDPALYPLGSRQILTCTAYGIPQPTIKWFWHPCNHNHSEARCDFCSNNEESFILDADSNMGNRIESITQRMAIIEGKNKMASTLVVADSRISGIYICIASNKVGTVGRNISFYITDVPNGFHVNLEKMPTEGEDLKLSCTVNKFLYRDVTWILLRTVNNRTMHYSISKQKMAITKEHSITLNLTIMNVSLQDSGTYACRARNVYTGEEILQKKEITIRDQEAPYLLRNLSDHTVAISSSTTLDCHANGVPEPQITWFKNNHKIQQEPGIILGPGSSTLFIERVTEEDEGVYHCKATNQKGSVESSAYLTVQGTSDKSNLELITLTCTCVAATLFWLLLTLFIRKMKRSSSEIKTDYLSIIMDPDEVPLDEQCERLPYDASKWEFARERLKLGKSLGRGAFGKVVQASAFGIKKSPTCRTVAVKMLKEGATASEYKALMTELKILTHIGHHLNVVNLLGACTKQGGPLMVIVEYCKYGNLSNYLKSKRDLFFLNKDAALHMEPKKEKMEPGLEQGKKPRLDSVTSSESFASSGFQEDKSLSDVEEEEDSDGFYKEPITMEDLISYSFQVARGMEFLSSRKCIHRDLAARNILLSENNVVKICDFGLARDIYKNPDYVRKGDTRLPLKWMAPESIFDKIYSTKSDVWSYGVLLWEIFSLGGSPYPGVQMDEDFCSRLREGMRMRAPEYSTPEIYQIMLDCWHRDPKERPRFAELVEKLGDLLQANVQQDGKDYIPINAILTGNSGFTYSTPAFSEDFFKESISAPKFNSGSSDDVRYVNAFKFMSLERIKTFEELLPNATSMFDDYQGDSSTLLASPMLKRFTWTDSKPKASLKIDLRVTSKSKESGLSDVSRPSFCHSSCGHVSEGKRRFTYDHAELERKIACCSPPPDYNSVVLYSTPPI
UniProt P09619, 33-1106 limits assumed: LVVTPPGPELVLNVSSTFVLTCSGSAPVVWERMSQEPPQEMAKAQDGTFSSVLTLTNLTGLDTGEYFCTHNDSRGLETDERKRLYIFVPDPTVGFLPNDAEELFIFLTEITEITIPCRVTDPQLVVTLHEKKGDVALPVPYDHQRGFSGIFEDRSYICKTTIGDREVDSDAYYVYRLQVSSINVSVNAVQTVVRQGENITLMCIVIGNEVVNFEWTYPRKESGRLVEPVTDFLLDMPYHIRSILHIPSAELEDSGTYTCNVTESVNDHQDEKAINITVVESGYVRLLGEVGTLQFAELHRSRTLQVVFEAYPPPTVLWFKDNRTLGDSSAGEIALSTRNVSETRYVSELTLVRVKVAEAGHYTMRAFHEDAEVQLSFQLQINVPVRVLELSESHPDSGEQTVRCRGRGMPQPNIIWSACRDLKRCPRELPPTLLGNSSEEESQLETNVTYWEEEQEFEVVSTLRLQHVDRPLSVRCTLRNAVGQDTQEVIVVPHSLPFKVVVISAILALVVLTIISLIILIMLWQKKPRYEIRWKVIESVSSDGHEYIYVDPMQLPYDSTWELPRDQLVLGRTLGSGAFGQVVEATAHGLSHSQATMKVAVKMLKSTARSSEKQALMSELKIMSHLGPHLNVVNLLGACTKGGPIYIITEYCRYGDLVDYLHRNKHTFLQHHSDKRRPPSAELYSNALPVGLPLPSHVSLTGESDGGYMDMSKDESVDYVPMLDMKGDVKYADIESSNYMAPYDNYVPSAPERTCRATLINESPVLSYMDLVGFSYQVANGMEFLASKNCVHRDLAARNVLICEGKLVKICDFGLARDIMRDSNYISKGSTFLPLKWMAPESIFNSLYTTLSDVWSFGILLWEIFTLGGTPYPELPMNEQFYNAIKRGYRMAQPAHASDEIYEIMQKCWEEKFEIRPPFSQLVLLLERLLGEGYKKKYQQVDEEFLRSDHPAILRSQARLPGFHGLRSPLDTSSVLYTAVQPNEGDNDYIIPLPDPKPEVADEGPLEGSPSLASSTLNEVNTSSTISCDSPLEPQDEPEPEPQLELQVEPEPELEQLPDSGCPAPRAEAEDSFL

Key:
[1] = In vitro stability of dendrimer didesethyl sunitinib conjugates in human plasma; settings: physiological conditions
Method: (§1) In vitro stability of dendrimer didesethyl sunitinib conjugates, D-4517 and D-4517.2, in human, mouse and rat plasma was evaluated at physiological conditions. […] At 48 hours, in all three plasma, less than 0.5% drug (by weight) was released from dendrimer drug conjugates.

[2] = In vitro stability of dendrimer didesethyl sunitinib conjugates in rat plasma; settings: physiological conditions
Method: as §1

CSF1R = CSF1R (Homo sapiens, UniProt P07333); assay: Kinase comparative binding affinity assay
KIT = KIT (Homo sapiens, UniProt P10721); assay: Kinase comparative binding affinity assay
PDGFRA = PDGFRA (Homo sapiens, UniProt P16234); assay: Kinase comparative binding affinity assay
VEGFR2 = VEGFR2 (Homo sapiens, UniProt P35968); assay: Kinase comparative binding affinity assay
VEGFR1 = VEGFR1 (Homo sapiens, UniProt P17948); assay: Kinase comparative binding affinity assay
PDGFRB = PDGFRB (Homo sapiens, UniProt P09619); assay: Kinase comparative binding affinity assay
[3] = Size and zeta potential, Zetasizer Nano ZS

SMILES: COC(=O)CCC/C(N)=C\NCCOCCOCCOCCC(=O)NCCNC(=O)c1c(C)[nH]c(C=C2C(=O)Nc3ccc(F)cc32)c1C
- drug release (weight percentage) [1]: 2%
- drug release (weight percentage) [2]: 4%
- Kd (CSF1R): 82 nM
- Kd (KIT): 3.4 nM
- Kd (PDGFRA): 16 nM
- Kd (VEGFR2; VEGFR2): 27 nM
- affinity for VEGFR2 (VEGFR2; without release of the active drug AVT-4517): nanomolar affinity
- Kd (VEGFR1): 1100 nM
- Kd (PDGFRB): 11 nM
- zeta potential ([3]; 0.2 mg/mL in 10 mM NaCl): +5.4±0.4 mV
- size ([3]; 0.5 mg/mL in deionized water): 5.5±0.5 nm
